The values that follow come from patent US12391903B2, “Cleaning liquid for excessive powder removal, method for producing three-dimensional molded object, and set of object molding liquid and cleaning liquid” (Ricoh Company, Ltd., priority 2022, dated 2025).

The nature of the series: Three-point bending strength of unsintered body before and after immersion in cleaning liquid. The following applies: for Strength after being immersed, grade / Strength after being immersed (MPa): 30 min in cleaning liquid, ultrasonic bath.
The mark [1] stands for this setting: unsintered body from object molding liquid 1.
[2] abbreviates: unsintered body from object molding liquid 2.
Where [3] appears, read: unsintered body from object molding liquid 3.

Some compounds share one wording; it may come from a single statement.

As to `C=C(C)[C@H]1CC=C(C)CC1` [Comparative Example 1, D-limonene, reference compound], the “Strength after being immersed, grade” value (object molding liquid 1) is on record as “D (−) (The bending strength was less than 2.7 MPa.)”. Besides, under setting [1], the “Strength before being immersed (MPa)” value came to 5.2 MPa and the “Strength before being immersed, grade” value is recorded as “A (The bending strength was 5 MPa or more.)”.
Taken in the same sequence, the figures for `CC1=CCC(=C(C)C)CC1` [Comparative Example 2, Terpinolene, reference compound] were “D (−) (The bending strength was less than 2.7 MPa.)”, 5.0 MPa and “A (The bending strength was 5 MPa or more.)”.
The like results for `CC1=CCC2CC1C2(C)C` (stereo not drawn) [Comparative Example 3, α-pinene, reference compound] were, in that order, “D (−) (The bending strength was less than 2.7 MPa.)”, 5.0 MPa and “A (The bending strength was 5 MPa or more.)”.
Regarding `C=C1CCC2CC1C2(C)C` (stereo not drawn) [Comparative Example 4, β-pinene, reference compound], the “Strength after being immersed, grade” value (object molding liquid 2) is on record as “D (−) (The bending strength was less than 2.7 MPa.)”. Under setting [2], the “Strength before being immersed (MPa)” value came to 4.5 MPa; the “Strength before being immersed, grade” value was “B (The bending strength was 3 MPa or more and less than 5 MPa.)”.
For `CCCCCC` [Comparative Example 5, Hexane, reference compound], where the note is “object molding liquid 2”, the “Strength after being immersed, grade” value is “D (−) (The bending strength was less than 2.7 MPa.)”. Besides, under setting [2], the “Strength before being immersed (MPa)” value turned out to be 4.5 MPa; the “Strength before being immersed, grade” value is “B (The bending strength was 3 MPa or more and less than 5 MPa.)”.
Regarding `CC1COC(=O)O1` (centres unmarked) [Comparative Example 6, Propylene carbonate, reference compound], the “Strength after being immersed, grade” value (object molding liquid 3) is recorded as “D (−) (The bending strength was less than 2.7 MPa.)”. For the same compound, under setting [3], the “Strength before being immersed (MPa)” value was 5.6 MPa and the “Strength before being immersed, grade” value was “A (The bending strength was 5 MPa or more.)”.
On to `CCCCCCCCCC` [Example 1, Decane], for which, under “object molding liquid 1”, the “Strength after being immersed (MPa)” value was 5.4 MPa and the “Strength after being immersed, grade” value was “A (The bending strength was 5 MPa or more.)”. Further, under setting [1], the “Strength before being immersed (MPa)” value came to 5.3 MPa and the “Strength before being immersed, grade” value is “A (The bending strength was 5 MPa or more.)”.
Consider `CCCCCCCCCCCC` [Example 2, Dodecane], for which, where the note is “object molding liquid 1”, the “Strength after being immersed (MPa)” value worked out at 5.2 MPa and the “Strength after being immersed, grade” value is reported as “A (The bending strength was 5 MPa or more.)”. Also, under setting [1], the “Strength before being immersed (MPa)” value is listed as 5.2 MPa and the “Strength before being immersed, grade” value is recorded as “A (The bending strength was 5 MPa or more.)”.
Turning to `CCCCCCCCCCCCCC` [Example 3, Tetradecane], for the setting “object molding liquid 1”, the “Strength after being immersed (MPa)” value is given as 5.2 MPa and the “Strength after being immersed, grade” value is reported as “A (The bending strength was 5 MPa or more.)”. Under setting [1], the “Strength before being immersed (MPa)” value is listed as 5.1 MPa and the “Strength before being immersed, grade” value is “A (The bending strength was 5 MPa or more.)”.
Turning to `CCCCCCCCCC` [Example 5, Decane], for the setting “object molding liquid 2”, the “Strength after being immersed (MPa)” value is given as 4.3 MPa; the “Strength after being immersed, grade” value is “B (The bending strength was 3 MPa or more and less than 5 MPa.)”. Moreover, under setting [2], the “Strength before being immersed (MPa)” value is 4.3 MPa; the “Strength before being immersed, grade” value was “B (The bending strength was 3 MPa or more and less than 5 MPa.)”.
As to `CCCCCCCCCC` [Example 7, Decane], where the note is “object molding liquid 3”, the “Strength after being immersed (MPa)” value was 4.9 MPa and the “Strength after being immersed, grade” value was “A (The bending strength was 5 MPa or more.)”. Also, under setting [3], the “Strength before being immersed (MPa)” value is 5.1 MPa and the “Strength before being immersed, grade” value was “A (The bending strength was 5 MPa or more.)”.
